Data as given in PubChem BioAssay AID1259280 (Sanger Institute, 2017).
In all, the deposit lists 794 reagents; this is a part drawn at random. 12 of all reagents (1.5%) count as active. 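Calls cover knock-down without drug only; synergy scores stand apart, values above 0.15 being treated as synergy.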 Entries without a mark were called inactive. Viability is capped at 1. Further read-outs or replicates are left out here. Not stated in the record: the amount of reagent, the time to read-out.

Aim: 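Essential kinases and drug-combination synergies in SNU407 cells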 (primary screen)
Cell system: human SNU407 colorectal cancer cells
Reagent: siRNA pool against human genes
Challenge: anchor drugs BYL719 at 1 µM, cetuximab at 5 µg/ml or trametinib at 10 nM, or DMSO vehicle alone; exposure time not given
Measurement: 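Viability relative to non-targeting control siRNA, expressed as robust z-score, plus a synergy score for each of the three anchor drugs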
Reading the numbers: viability z-score, no drug and viability vs control, no drug: higher = more cells survive the knock-down; synergy with trametinib and synergy with BYL719: higher = stronger synergy of knock-down with drug
Hit rule: 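Essential calls require a no-drug robust viability z-score under -3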
Calls: active = essential (knock-down alone kills cells); inactive = no change without drug

gene,PubChem SID,"viability z-score, no drug","viability vs control, no drug (fraction of control)",synergy with trametinib,synergy with BYL719
SRC,SID56478553,-0.329,0.906,-0.0577,-0.0294
NME1,SID56479166,0.504,0.97,-0.204,-0.112
LMTK1,SID152151616,-1.24,0.837,0.0514,-0.0371
CHEK1,SID152148697,-2.65,0.728,-0.0603,0.0113
PKIA,SID56479258,0.901,1,-0.0912,-0.0605
JAK1,SID152154758,0.705,0.985,-0.0662,0.0831
CAMK1D,SID152153083,-0.802,0.87,0.0535,-0.0764
COASY,SID56479117,-2.13,0.768,-0.0521,-0.00996
EIF2AK2,SID56478676,0.901,1,-0.0468,-0.0202
ARID1A,SID152147093,0.604,0.977,-0.11,0.0237
STK25,SID135620899,0.0757,0.937,-0.0466,-0.0261
LMTK2,SID152147902,-1.25,0.835,-0.072,-0.0355
LATS2,SID152149461,0.901,1,0.0277,-0.177
FXN,SID56479078,0.227,0.949,-0.0569,0.00385
DBF4,SID135620786,0.372,0.96,0.0151,-0.0958
CDK16,SID152150805,0.0834,0.938,-0.0706,0.0721
CAMK1,SID56478929,0.901,1,0.102,0.0661
CSNK1D,SID56478658,0.252,0.95,0.143,0.097
FYN,SID135620621,0.0136,0.932,0.0612,0.0949
STAG2,SID152146952,0.465,0.967,-0.115,-0.00986

Part of the list above, set out differently:
{"gene":"CAMK1","PubChem SID":"SID56478929","viability z-score, no drug":0.901,"viability vs control, no drug (fraction of control)":1,"synergy with trametinib":0.102,"synergy with BYL719":0.0661}
{"gene":"CSNK1D","PubChem SID":"SID56478658","viability z-score, no drug":0.252,"viability vs control, no drug (fraction of control)":0.95,"synergy with trametinib":0.143,"synergy with BYL719":0.097}
